Measured values from the supplement of paper PMC7661543.
The effect of the compound repeats well; differences between the knockouts mostly do not.

Key:
HCC-38 = assay: relative cell number vs DMSO control (72 h) (% of DMSO); higher = less growth inhibition (more cells)
Method: (§1)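 QMAP-Seq: a pool of 5 breast cancer cell lines (ZR-75-1, SKBR3, HCC-38, MDA-MB-231, BT-20), each carrying 12 doxycycline-inducible Cas9 sgRNA perturbations (11 knockouts plus non-targeting sgNT), was treated with compounds for 72 h at four 10-fold doses (10 nM-10 uM or 1 nM-1 uM range). Barcodes were amplified and sequenced, and cell number was interpolated from 293T spike-in standard curves. The result is expressed as % of the median of DMSO wells. Two biological replicates.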

BT-20 = assay: as above
Method: as §1

Cc1cc(C2CCCCC2)n(O)c(=O)c1 [Ciclopirox]
relative cell number
Details	BT-20	HCC-38
sgRNA knockout: sgATF3, 10 nM	92.1	82.9
sgRNA knockout: sgATF3, 100 nM	81.7	104
sgRNA knockout: sgATF3, 1000 nM	61.4	71.5
sgRNA knockout: sgATF3, 10000 nM	23	15.6
sgRNA knockout: sgATF4, 10 nM	97.3	77.2
sgRNA knockout: sgATF4, 100 nM	108	104
sgRNA knockout: sgATF4, 1000 nM	56.1	75.8
sgRNA knockout: sgATF4, 10000 nM	26.3	16.5
sgRNA knockout: sgATF6, 10 nM	106	91.6
sgRNA knockout: sgATF6, 100 nM	94.2	96.9
sgRNA knockout: sgATF6, 1000 nM	64.3	77.9
sgRNA knockout: sgATF6, 10000 nM	27	15.1
sgRNA knockout: sgATG7, 10 nM	99.8	85.3
sgRNA knockout: sgATG7, 100 nM	92.6	97.97
sgRNA knockout: sgATG7, 1000 nM	55.1	73.5
sgRNA knockout: sgATG7, 10000 nM	27.2	12.3
sgRNA knockout: sgERN1, 10 nM	82.4	84.2
sgRNA knockout: sgERN1, 100 nM	89.3	103
sgRNA knockout: sgERN1, 1000 nM	68.1	74.7
sgRNA knockout: sgERN1, 10000 nM	25.8	18.3
sgRNA knockout: sgHSF1, 10 nM	86.9	102
sgRNA knockout: sgHSF1, 100 nM	105	101
sgRNA knockout: sgHSF1, 1000 nM	56.2	67.1
sgRNA knockout: sgHSF1, 10000 nM	32.2	16.3
sgRNA knockout: sgHSF2, 10 nM	79.9	91.4
sgRNA knockout: sgHSF2, 100 nM	102	97.6
sgRNA knockout: sgHSF2, 1000 nM	52.9	71.8
sgRNA knockout: sgHSF2, 10000 nM	21.6	16.6
sgRNA knockout: sgKEAP1, 10 nM	90.6	103
sgRNA knockout: sgKEAP1, 100 nM	90.7	98.7
sgRNA knockout: sgKEAP1, 1000 nM	59	54.6
sgRNA knockout: sgKEAP1, 10000 nM	26.93	11.1
sgRNA knockout: sgNFE2L2, 10 nM	94.4	73.6
sgRNA knockout: sgNFE2L2, 100 nM	85.7	98.7
sgRNA knockout: sgNFE2L2, 1000 nM	62.6	70.3
sgRNA knockout: sgNFE2L2, 10000 nM	27.5	16.2
sgRNA knockout: sgSLC35F2, 10 nM	95.5	82.1
sgRNA knockout: sgSLC35F2, 100 nM	97.2	106
sgRNA knockout: sgSLC35F2, 1000 nM	45.8	78.2
sgRNA knockout: sgSLC35F2, 10000 nM	33.8	16.9
sgRNA knockout: sgXBP1, 10 nM	90	81.6
sgRNA knockout: sgXBP1, 100 nM	108.9	108
sgRNA knockout: sgXBP1, 1000 nM	65.2	75.8
sgRNA knockout: sgXBP1, 10000 nM	25.8	13.6

COc1cc(/C=C/C(=O)CC(=O)/C=C/c2ccc(O)c(OC)c2)ccc1O [Curcumin]
relative cell number
Details	BT-20	HCC-38
sgRNA knockout: sgATF3, 10 nM	102	108
sgRNA knockout: sgATF3, 100 nM	113	95.4
sgRNA knockout: sgATF3, 1000 nM	106	88.7
sgRNA knockout: sgATF3, 10000 nM	93.1	76.1
sgRNA knockout: sgATF4, 10 nM	115.2	95.7
sgRNA knockout: sgATF4, 100 nM	116	100
sgRNA knockout: sgATF4, 1000 nM	94.7	94.7
sgRNA knockout: sgATF4, 10000 nM	82.9	73.5
sgRNA knockout: sgATF6, 10 nM	114	103
sgRNA knockout: sgATF6, 100 nM	107	91.8
sgRNA knockout: sgATF6, 1000 nM	113	87.5
sgRNA knockout: sgATF6, 10000 nM	88.8	84.8
sgRNA knockout: sgATG7, 10 nM	122	104
sgRNA knockout: sgATG7, 100 nM	93.1	111
sgRNA knockout: sgATG7, 1000 nM	101	97.4
sgRNA knockout: sgATG7, 10000 nM	110	83.5
sgRNA knockout: sgERN1, 10 nM	113	106
sgRNA knockout: sgERN1, 100 nM	98.7	108
sgRNA knockout: sgERN1, 1000 nM	106.7	96.6
sgRNA knockout: sgERN1, 10000 nM	79.3	77.2
sgRNA knockout: sgHSF1, 10 nM	99.81	102
sgRNA knockout: sgHSF1, 100 nM	104	105
sgRNA knockout: sgHSF1, 1000 nM	103	96.1
sgRNA knockout: sgHSF1, 10000 nM	97.9	84.9
sgRNA knockout: sgHSF2, 10 nM	104	99.3
sgRNA knockout: sgHSF2, 100 nM	91.7	105
sgRNA knockout: sgHSF2, 1000 nM	111	105
sgRNA knockout: sgHSF2, 10000 nM	84.9	90.6
sgRNA knockout: sgKEAP1, 10 nM	98.7	107
sgRNA knockout: sgKEAP1, 100 nM	93.3	112
sgRNA knockout: sgKEAP1, 1000 nM	103	103
sgRNA knockout: sgKEAP1, 10000 nM	85.6	76.4
sgRNA knockout: sgNFE2L2, 10 nM	130	89.1
sgRNA knockout: sgNFE2L2, 100 nM	115	94.7
sgRNA knockout: sgNFE2L2, 1000 nM	121	90.6
sgRNA knockout: sgNFE2L2, 10000 nM	113	72.2
sgRNA knockout: sgSLC35F2, 10 nM	108	97.4
sgRNA knockout: sgSLC35F2, 100 nM	91.1	101
sgRNA knockout: sgSLC35F2, 1000 nM	111	89.9
sgRNA knockout: sgSLC35F2, 10000 nM	91.2	76.8
sgRNA knockout: sgXBP1, 10 nM	118	95.7
sgRNA knockout: sgXBP1, 100 nM	107	96.9
sgRNA knockout: sgXBP1, 1000 nM	120	97.7
sgRNA knockout: sgXBP1, 10000 nM	85.9	80.5

CCOC(=O)CCNc1cc(N2CCc3ccccc3CC2)nc(-c2ccccn2)n1 [GSKJ4]
relative cell number
Details	BT-20	HCC-38
sgRNA knockout: sgATF3, 10 nM	98	102
sgRNA knockout: sgATF3, 100 nM	103	101
sgRNA knockout: sgATF3, 1000 nM	106	104
sgRNA knockout: sgATF3, 10000 nM	52.8	56.7
sgRNA knockout: sgATF4, 10 nM	102	98
sgRNA knockout: sgATF4, 100 nM	116	109
sgRNA knockout: sgATF4, 1000 nM	108	96.4
sgRNA knockout: sgATF4, 10000 nM	44.76	58.4
sgRNA knockout: sgATF6, 10 nM	93.9	104.5
sgRNA knockout: sgATF6, 100 nM	103	123
sgRNA knockout: sgATF6, 1000 nM	92.6	84
sgRNA knockout: sgATF6, 10000 nM	53.4	67.7
sgRNA knockout: sgATG7, 10 nM	84.4	99.8
sgRNA knockout: sgATG7, 100 nM	107	117
sgRNA knockout: sgATG7, 1000 nM	113	95.2
sgRNA knockout: sgATG7, 10000 nM	61.6	55
sgRNA knockout: sgERN1, 10 nM	97.6	102
sgRNA knockout: sgERN1, 100 nM	102	111
sgRNA knockout: sgERN1, 1000 nM	90.4	96
sgRNA knockout: sgERN1, 10000 nM	53.76	52.7
sgRNA knockout: sgHSF1, 10 nM	102	108
sgRNA knockout: sgHSF1, 100 nM	96.07	106
sgRNA knockout: sgHSF1, 1000 nM	95.5	111
sgRNA knockout: sgHSF1, 10000 nM	53.9	70.6
sgRNA knockout: sgHSF2, 10 nM	84.3	96.1
sgRNA knockout: sgHSF2, 100 nM	94.6	118
sgRNA knockout: sgHSF2, 1000 nM	107	97.6
sgRNA knockout: sgHSF2, 10000 nM	53.97	52.98
sgRNA knockout: sgKEAP1, 10 nM	101	92.9
sgRNA knockout: sgKEAP1, 100 nM	100	125.9
sgRNA knockout: sgKEAP1, 1000 nM	93.09	113
sgRNA knockout: sgKEAP1, 10000 nM	49.9	55.4
sgRNA knockout: sgNFE2L2, 10 nM	112	94
sgRNA knockout: sgNFE2L2, 100 nM	110	105
sgRNA knockout: sgNFE2L2, 1000 nM	101	93.1
sgRNA knockout: sgNFE2L2, 10000 nM	45.6	53.2
sgRNA knockout: sgSLC35F2, 10 nM	104	109
sgRNA knockout: sgSLC35F2, 100 nM	107	104
sgRNA knockout: sgSLC35F2, 1000 nM	102	96.4
sgRNA knockout: sgSLC35F2, 10000 nM	55.5	56.4
sgRNA knockout: sgXBP1, 10 nM	96.5	91.8
sgRNA knockout: sgXBP1, 100 nM	112	106
sgRNA knockout: sgXBP1, 1000 nM	102	95.6
sgRNA knockout: sgXBP1, 10000 nM	48.7	58.3

COc1cc2ncnc(Nc3ccc(F)c(Cl)c3)c2cc1OCCCN1CCOCC1 [Gefitinib]
relative cell number
Details	BT-20	HCC-38
sgRNA knockout: sgATF3, 10 nM	90.9	92.6
sgRNA knockout: sgATF3, 100 nM	98.9	108
sgRNA knockout: sgATF3, 1000 nM	73.2	113
sgRNA knockout: sgATF3, 10000 nM	79.2	87.6
sgRNA knockout: sgATF4, 10 nM	89.1	87.2
sgRNA knockout: sgATF4, 100 nM	85.5	99.4
sgRNA knockout: sgATF4, 1000 nM	82.9	110
sgRNA knockout: sgATF4, 10000 nM	69	83.1
sgRNA knockout: sgATF6, 10 nM	91	88.2
sgRNA knockout: sgATF6, 100 nM	99.8	92.4
sgRNA knockout: sgATF6, 1000 nM	78.4	107
sgRNA knockout: sgATF6, 10000 nM	73.7	88.9
sgRNA knockout: sgATG7, 10 nM	85.9	80.3
sgRNA knockout: sgATG7, 100 nM	98.7	92.1
sgRNA knockout: sgATG7, 1000 nM	75.8	113
sgRNA knockout: sgATG7, 10000 nM	77.5	92.1
sgRNA knockout: sgERN1, 10 nM	86.7	91.6
sgRNA knockout: sgERN1, 100 nM	95.1	115
sgRNA knockout: sgERN1, 1000 nM	86.7	109
sgRNA knockout: sgERN1, 10000 nM	65.3	97.8
sgRNA knockout: sgHSF1, 10 nM	97.5	95.6
sgRNA knockout: sgHSF1, 100 nM	94	106
sgRNA knockout: sgHSF1, 1000 nM	92.1	104
sgRNA knockout: sgHSF1, 10000 nM	66.3	106
sgRNA knockout: sgHSF2, 10 nM	77.1	98.8
sgRNA knockout: sgHSF2, 100 nM	87.2	107
sgRNA knockout: sgHSF2, 1000 nM	94.6	105
sgRNA knockout: sgHSF2, 10000 nM	69.01	91.8
sgRNA knockout: sgKEAP1, 10 nM	93.7	102
sgRNA knockout: sgKEAP1, 100 nM	83.8	116
sgRNA knockout: sgKEAP1, 1000 nM	88	89.9
sgRNA knockout: sgKEAP1, 10000 nM	74.9	91.1
sgRNA knockout: sgNFE2L2, 10 nM	84.1	76.5
sgRNA knockout: sgNFE2L2, 100 nM	90.797	102.7
sgRNA knockout: sgNFE2L2, 1000 nM	77	113
sgRNA knockout: sgNFE2L2, 10000 nM	89.6	86.6
sgRNA knockout: sgSLC35F2, 10 nM	94.9	89.2
sgRNA knockout: sgSLC35F2, 100 nM	98.7	110
sgRNA knockout: sgSLC35F2, 1000 nM	86.5	98.5
sgRNA knockout: sgSLC35F2, 10000 nM	66.9	96.5
sgRNA knockout: sgXBP1, 10 nM	83.1	86.3
sgRNA knockout: sgXBP1, 100 nM	100	109
sgRNA knockout: sgXBP1, 1000 nM	82.45	109
sgRNA knockout: sgXBP1, 10000 nM	77	88.382
